Protein sequences, listed by entry. Tags and fused reporters are not part of them. Lines headed by an entry give the natural chain unless they say otherwise; changes in a name come on top.
UniProt Q99755: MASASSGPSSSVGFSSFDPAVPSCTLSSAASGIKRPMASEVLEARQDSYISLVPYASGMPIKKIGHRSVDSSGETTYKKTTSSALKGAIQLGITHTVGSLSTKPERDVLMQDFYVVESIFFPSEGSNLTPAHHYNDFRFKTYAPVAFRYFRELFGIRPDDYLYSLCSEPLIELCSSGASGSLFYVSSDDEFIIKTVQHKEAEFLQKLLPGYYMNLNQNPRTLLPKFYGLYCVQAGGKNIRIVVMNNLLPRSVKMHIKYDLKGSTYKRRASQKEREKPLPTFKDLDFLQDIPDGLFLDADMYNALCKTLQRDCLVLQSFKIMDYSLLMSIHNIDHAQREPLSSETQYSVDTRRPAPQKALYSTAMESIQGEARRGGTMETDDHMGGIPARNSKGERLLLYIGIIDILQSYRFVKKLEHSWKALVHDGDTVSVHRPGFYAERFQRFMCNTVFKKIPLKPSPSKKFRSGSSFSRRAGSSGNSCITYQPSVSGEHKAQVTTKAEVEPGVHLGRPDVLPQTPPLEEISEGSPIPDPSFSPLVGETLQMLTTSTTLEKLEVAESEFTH
UniProt P46937: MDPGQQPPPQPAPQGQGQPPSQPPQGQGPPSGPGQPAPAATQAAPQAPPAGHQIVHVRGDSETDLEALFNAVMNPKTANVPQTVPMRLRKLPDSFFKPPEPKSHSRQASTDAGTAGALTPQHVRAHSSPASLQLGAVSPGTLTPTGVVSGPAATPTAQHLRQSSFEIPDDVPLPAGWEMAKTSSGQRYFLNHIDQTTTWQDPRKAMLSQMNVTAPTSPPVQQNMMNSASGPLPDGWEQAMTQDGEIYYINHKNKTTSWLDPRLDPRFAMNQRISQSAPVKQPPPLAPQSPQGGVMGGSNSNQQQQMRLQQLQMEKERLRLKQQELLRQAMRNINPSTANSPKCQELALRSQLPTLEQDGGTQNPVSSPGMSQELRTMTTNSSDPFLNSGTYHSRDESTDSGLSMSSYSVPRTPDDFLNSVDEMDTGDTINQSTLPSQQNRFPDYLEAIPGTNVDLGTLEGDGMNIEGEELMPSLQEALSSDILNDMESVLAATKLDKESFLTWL

In PMC11066040, “Nuclear phosphoinositide signaling promotes YAP/TAZ-TEAD transcriptional activity in breast cancer” (The EMBO Journal, 2024):

Biological target: HA-tagged PIPKIα, wild type (UniProt Q99755)
Experiment: co-IP; tagged proteins co-transfected in HEK293 cells for 48 h; lysis in 1% Brij58, 150 mM NaCl, 20 mM HEPES pH 7.4; precipitated by anti-HA, anti-Myc or anti-Flag antibody, partner detected by its tag; in one panel cells treated with 5 μM LPA for 2 h

binding: binds
Substance: Flag-tagged YAP, wild type (from UniProt P46937 1-504)

These are yes or no findings as the source states them, for the method shown. Binding seen in cells or lysates may run through a third protein. Binding can be weak; no strength is given.
